Values from PubChem BioAssay AID1259424 (University of Nebraska Medical Center, 2018).
This is a random part of about 14,000 reagents. 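Higher correlation or smaller distance means closer resemblance to KSR1 loss; control wells, including KSR1 knockdowns, recur on many plates.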 Not given: the time to read-out.

Assay: 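Seek colon cancer survival genes behaving like KSR1, using a six-gene signature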 (primary screen)
Cells: human HCT116 colon cancer cells
Knock-down reagent: siRNA pool against human genes, 50 nM
Read-out: 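Log2 levels of six mRNAs (branched-DNA multiplex), adjusted by two reference genes and the non-targeting median, then scored against the average KSR1 knockdown pattern as Pearson r and euclidean distance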
Scale: mean correlation with KSR1 profile and KSR1 correlation: higher = expression change more like KSR1 knockdown; mean distance from KSR1 profile: higher = expression change less like KSR1 knockdown

| target gene | mean correlation with KSR1 profile | mean distance from KSR1 profile | KSR1 correlation, replicate 1 | KSR1 correlation, replicate 2 | KSR1 correlation, replicate 3 |
| --- | --- | --- | --- | --- | --- |
| B3GALNT1 | 0.111 | 1.59 | 0.312 | 0.263 | -0.185 |
| ZFYVE16 (zinc finger FYVE-type containing 16) | -0.311 | 1.57 | -0.613 | -0.0684 | 0.159 |
| SIPA1L1 (signal induced proliferation associated 1 like 1) | 0.0321 | 1.4 | 0.425 | -0.00689 | -0.191 |
| TP53BP2 (tumor protein p53 binding protein 2) | -0.123 | 1.58 | -0.116 | -0.257 | -0.145 |
| GZMA (granzyme A) | 0.794 | 0.539 | 0.85 | 0.686 | 0.806 |
| CMC2 (C-X9-C motif containing 2) | -0.0473 | 1.91 | -0.112 | 0.0433 | -0.0149 |
| ASPN (asporin) | 0.0251 | 1.69 | -0.198 | 0.00529 | 0.0122 |
| MGP (matrix Gla protein) | -0.427 | 2.87 | -0.419 | -0.561 | -0.422 |
| HSF2BP (heat shock transcription factor 2 binding protein) | -0.318 | 2.67 | -0.263 | -0.43 | -0.283 |
| UHRF2 (ubiquitin like with PHD and ring finger domains 2) | -0.37 | 2.34 | -0.23 | -0.456 | -0.494 |
| ZFP69B (ZFP69 zinc finger protein B) | 0.604 | 1.29 | 0.385 | 0.254 | 0.503 |
| RCBTB2 (RCC1 and BTB domain containing protein 2) | 0.183 | 1.98 | 0.348 | -0.0014 | 0.291 |
| SNX29 (sorting nexin 29) | 0.607 | 1.31 | 0.587 | 0.466 | 0.578 |
| KPNA2 (karyopherin subunit alpha 2) | -0.68 | 2.83 | -0.735 | -0.737 | -0.731 |
| ZNF135 (zinc finger protein 135) | 0.346 | 1.63 | -0.0189 | 0.578 | 0.24 |
| EEA1 (early endosome antigen 1) | -0.542 | 1.85 | -0.395 | -0.74 | -0.5 |
| LY6K (lymphocyte antigen 6 family member K) | 0.811 | 2.26 | 0.66 | 0.928 | 0.709 |
| HDLBP (high density lipoprotein binding protein) | -0.607 | 1.4 | -0.777 | -0.457 | -0.409 |
| NPM3 (nucleophosmin/nucleoplasmin 3) | -0.182 | 1.26 | -0.374 | -0.445 | 0.402 |

Quoted from above for reference:
| target gene | mean correlation with KSR1 profile | mean distance from KSR1 profile | KSR1 correlation, replicate 1 | KSR1 correlation, replicate 2 | KSR1 correlation, replicate 3 |
| --- | --- | --- | --- | --- | --- |
| UHRF2 (ubiquitin like with PHD and ring finger domains 2) | -0.37 | 2.34 | -0.23 | -0.456 | -0.494 |
| ZFP69B (ZFP69 zinc finger protein B) | 0.604 | 1.29 | 0.385 | 0.254 | 0.503 |
| RCBTB2 (RCC1 and BTB domain containing protein 2) | 0.183 | 1.98 | 0.348 | -0.0014 | 0.291 |
| SNX29 (sorting nexin 29) | 0.607 | 1.31 | 0.587 | 0.466 | 0.578 |

Further results follow:
| target gene | mean correlation with KSR1 profile | mean distance from KSR1 profile | KSR1 correlation, replicate 1 | KSR1 correlation, replicate 2 | KSR1 correlation, replicate 3 |
| --- | --- | --- | --- | --- | --- |
| IWS1 (interacts with SUPT6H, CTD assembly factor 1) | -0.373 | 2.21 | -0.694 | -0.466 | -0.21 |
| TIMCC (TIM double twin CX3C motif chaperone) | 0.685 | 5.12 | 0.698 | 0.514 | 0.307 |
| CCZ1 (CCZ1 vacuolar protein trafficking and biogenesis associated) | -0.503 | 2.65 | -0.385 | -0.676 | -0.365 |
| RNF40 (ring finger protein 40) | 0.0603 | 2.39 | -0.303 | 0.0409 | 0.439 |
| FLOT2 (flotillin 2) | -0.52 | 2.89 | -0.542 | -0.365 | -0.602 |
| RAB5A (RAB5A, member RAS oncogene family) | -0.194 | 2.4 | 0.0447 | -0.366 | -0.321 |
| MCM3 (minichromosome maintenance complex component 3) | 0.204 | 1.06 | 0.261 | 0.108 | -0.213 |
| PDE7B (phosphodiesterase 7B) | 0.341 | 2.5 | 0.35 | 0.358 | 0.267 |
| GALNT7 (polypeptide N-acetylgalactosaminyltransferase 7) | 0.352 | 1.42 | 0.374 | 0.345 | 0.228 |
| UFL1 (UFM1 specific ligase 1) | 0.489 | 1.37 | 0.197 | 0.56 | 0.459 |
| CDH9 (cadherin 9) | 0.218 | 1.76 | 0.41 | 0.105 | 0.339 |
| PKDREJ (polycystin family receptor for egg jelly) | 0.0507 | 1.37 | 0.206 | -0.167 | -0.119 |
| AGRN (agrin) | -0.2 | 4.48 | -0.0925 | -0.0944 | -0.18 |
| RARA (retinoic acid receptor alpha) | -0.544 | 3.11 | -0.484 | -0.608 | -0.589 |
| RAD23B (RAD23 nucleotide excision repair protein B) | 0.181 | 2.86 | -0.0578 | 0.286 | 0.15 |
| RBM8A (RNA binding motif protein 8A) | 0.318 | 4.6 | 0.386 | 0.475 | -0.0546 |
| PIGA (phosphatidylinositol glycan anchor biosynthesis class A) | 0.202 | 1.5 | 0.183 | 0.224 | 0.211 |
| ZNF33A (zinc finger protein 33A) | 0.225 | 1.52 | 0.22 | 0.49 | -0.163 |
| PCBD2 (pterin-4 alpha-carbinolamine dehydratase 2) | 0.7 | 1.38 | 0.604 | 0.559 | 0.728 |
| CDK13 (cyclin dependent kinase 13) | 0.104 | 1.82 | 0.0794 | 0.325 | -0.371 |
| JUP (junction plakoglobin) | 0.0368 | 1.79 | 0.0988 | -0.514 | 0.132 |
| CPNE5 (copine 5) | 0.114 | 1.5 | 0.0467 | 0.27 | -0.123 |
| ZNF83 (zinc finger protein 83) | 0.0562 | 2.67 | 0.0272 | 0.188 | -0.0833 |
| ABCB9 (ATP binding cassette subfamily B member 9) | -0.228 | 2.84 | 0.0311 | -0.177 | -0.287 |
| RBM5 (RNA binding motif protein 5) | 0.949 | 1.62 | 0.904 | 0.941 | 0.715 |
| PPP1R12B (protein phosphatase 1 regulatory subunit 12B) | -0.375 | 2.25 | -0.379 | -0.202 | -0.467 |
| SV2C (synaptic vesicle glycoprotein 2C) | -0.609 | 2.28 | -0.414 | -0.76 | -0.438 |
| PCGF5 (polycomb group ring finger 5) | 0.234 | 2.69 | 0.0839 | 0.156 | -0.0878 |
| FNDC4 (fibronectin type III domain containing 4) | -0.473 | 2.15 | -0.485 | -0.615 | -0.431 |
| PCIF1 (phosphorylated CTD interacting factor 1) | -0.0842 | 2.75 | 0.0268 | -0.0292 | -0.188 |
| MYCBP (MYC binding protein) | -0.651 | 2.57 | -0.385 | -0.726 | -0.0441 |
